These are yes or no findings as the source states them, for the method shown. Binding seen in cells or lysates may run through a third protein. Some results given as binding are weak or reduced against the parent protein; the word gives no strength.
Key:
[1] = molecular target: T1, endogenous BAG5 in human brain lysate (human) (UniProt Q9UL15); experiment: GST pull-down from human brain SNpc lysate
T1 sequence: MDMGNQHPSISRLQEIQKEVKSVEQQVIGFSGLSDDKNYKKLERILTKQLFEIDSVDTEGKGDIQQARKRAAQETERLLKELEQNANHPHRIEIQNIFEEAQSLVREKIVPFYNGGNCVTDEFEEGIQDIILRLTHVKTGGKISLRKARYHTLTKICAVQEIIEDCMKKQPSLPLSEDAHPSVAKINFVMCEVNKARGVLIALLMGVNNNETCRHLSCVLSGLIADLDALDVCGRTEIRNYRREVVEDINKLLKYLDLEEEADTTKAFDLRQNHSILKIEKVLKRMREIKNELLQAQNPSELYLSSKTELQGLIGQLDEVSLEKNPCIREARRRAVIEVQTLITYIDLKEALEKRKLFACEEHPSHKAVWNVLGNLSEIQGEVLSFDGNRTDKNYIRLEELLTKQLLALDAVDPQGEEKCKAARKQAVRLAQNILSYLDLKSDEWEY

Sequences of proteins named here, by UniProt entry; tags and fusion partners are left off.
UniProt O60260: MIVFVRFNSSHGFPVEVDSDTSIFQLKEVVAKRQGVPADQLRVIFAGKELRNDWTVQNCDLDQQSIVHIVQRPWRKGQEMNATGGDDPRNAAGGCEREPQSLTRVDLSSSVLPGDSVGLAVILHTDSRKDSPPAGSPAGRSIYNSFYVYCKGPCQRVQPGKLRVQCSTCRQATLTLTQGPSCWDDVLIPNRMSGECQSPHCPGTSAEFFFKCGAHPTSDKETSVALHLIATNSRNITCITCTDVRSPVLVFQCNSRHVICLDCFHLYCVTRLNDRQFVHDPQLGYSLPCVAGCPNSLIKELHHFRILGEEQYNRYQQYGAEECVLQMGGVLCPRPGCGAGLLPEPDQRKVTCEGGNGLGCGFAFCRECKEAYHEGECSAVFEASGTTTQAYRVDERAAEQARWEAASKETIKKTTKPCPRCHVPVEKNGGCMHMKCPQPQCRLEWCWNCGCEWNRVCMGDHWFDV
UniProt P0DMV8: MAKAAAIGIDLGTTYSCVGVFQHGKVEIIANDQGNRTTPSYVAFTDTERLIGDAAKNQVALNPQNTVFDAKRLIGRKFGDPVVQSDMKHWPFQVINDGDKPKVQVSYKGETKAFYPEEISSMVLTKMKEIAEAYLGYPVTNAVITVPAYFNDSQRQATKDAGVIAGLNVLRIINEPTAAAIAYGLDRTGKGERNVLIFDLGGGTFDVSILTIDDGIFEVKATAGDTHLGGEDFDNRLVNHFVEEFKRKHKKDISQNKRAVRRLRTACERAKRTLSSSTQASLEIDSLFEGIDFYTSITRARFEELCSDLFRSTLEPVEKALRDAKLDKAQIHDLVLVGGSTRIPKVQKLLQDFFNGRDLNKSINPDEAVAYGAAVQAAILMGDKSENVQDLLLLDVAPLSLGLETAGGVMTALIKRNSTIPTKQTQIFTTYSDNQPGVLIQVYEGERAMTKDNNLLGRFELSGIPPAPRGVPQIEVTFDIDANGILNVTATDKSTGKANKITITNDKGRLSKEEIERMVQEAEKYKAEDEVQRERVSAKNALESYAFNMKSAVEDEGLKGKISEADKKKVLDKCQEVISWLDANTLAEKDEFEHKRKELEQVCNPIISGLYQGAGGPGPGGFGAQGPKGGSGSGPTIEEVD

[2] = molecular target: His-parkin (human) (UniProt O60260); experiment: in vitro GST pull-down with recombinant His-parkin
[3] = molecular target: His-parkin (human) (UniProt O60260); experiment: in vitro GST pull-down (FIG. 4B)
[4] = molecular target: T1, endogenous BAG5 in human brain lysate (human); experiment: GST pull-down from human brain SNpc lysate (FIG. 3B)
[5] = molecular target: GFP-parkin (human) (UniProt O60260); experiment: co-immunoprecipitation from HEK293T cells co-transfected with GFP-parkin, FLAG-BAG5 or FLAG-BAG5(DARA), and His-Hsp70

Question: For GST-Hsp70 (from UniProt P0DMV8 1-641), which binding [1] is on record?
Answer: binds

Question: What about the binding [2] of the same substance?
Answer: binds

Question: And the binding [3]?
Answer: binds

Question: What about the binding [4] of the same substance?
Answer: binds

Question: Which binding [5] does the source give for His-Hsp70 (from UniProt P0DMV8 1-641) here?
Answer: binds

Reference: patent US20060159681A1
